Crude mass and crude yield data for four substances are collected here from patent US10723777B2 (CAREGEN CO., LTD., priority 2016, dated 2020).

A short description of series [1]: general procedure: peptide synthesis; CTL resin. Particulars: whole synthesis.
Series [2] is described as follows: general procedure: peptide synthesis; chlorotrityl chloride resin (CTL resin, Nova biochem Cat No. 01-64-0021). Particulars: whole synthesis; for crude yield: scale of the general procedure 700 mg resin.

Turning to NH2-Leu-Lys-Thr-Arg-Asn-COOH, in series [1], the crude mass stood at 0.85 g. In series [1] (scale of the general procedure 700 mg resin), this substance came in with a crude yield of 92%.
In series [2], “NH2—Cys(Ser)-Asp-Leu-Arg-Arg-Leu-Glu-Met-Tyr-Cys(Ser)-COOH (ACYLPHPWFC; Peptide 4)” registered a crude mass of 0.76 g and a crude yield of 88%.
In the same order, the values of “NH2-Lys-Gly-Ala-Cys(Ser)-Thr-Gly-Trp-Met-Ala-COOH (KGACTGWMA; Peptide 2)” are 0.78 g and 82%.
In series [2], “NH2-Ala-Cys(Ser)Thr-Leu-Pro-His-Pro-Trp-Phe-Cys(Ser)-COOH” registered a crude mass of 0.92 g and a crude yield of 85%.
